Experimental data taken from PubChem BioAssay AID720504 (National Center for Advancing Translational Sciences (NCATS), 2013).
About 10,000 (2.8%) of roughly 360,000 compounds were called active. The shares of active, inactive and inconclusive entries below differ from those in the screen. The call rests on the fitted dose curve; in most records, active means well fitted inhibition curve with a large enough effect; inconclusive means small, poorly fitted or top-dose-only effect; inactive means flat fitted curve, though single readings scatter. A potency beside an inconclusive call is a rough fit, not a confirmed value.

Amino acid sequences for entries named in this document (tags omitted).
UniProt P53350, whole entry, looked up: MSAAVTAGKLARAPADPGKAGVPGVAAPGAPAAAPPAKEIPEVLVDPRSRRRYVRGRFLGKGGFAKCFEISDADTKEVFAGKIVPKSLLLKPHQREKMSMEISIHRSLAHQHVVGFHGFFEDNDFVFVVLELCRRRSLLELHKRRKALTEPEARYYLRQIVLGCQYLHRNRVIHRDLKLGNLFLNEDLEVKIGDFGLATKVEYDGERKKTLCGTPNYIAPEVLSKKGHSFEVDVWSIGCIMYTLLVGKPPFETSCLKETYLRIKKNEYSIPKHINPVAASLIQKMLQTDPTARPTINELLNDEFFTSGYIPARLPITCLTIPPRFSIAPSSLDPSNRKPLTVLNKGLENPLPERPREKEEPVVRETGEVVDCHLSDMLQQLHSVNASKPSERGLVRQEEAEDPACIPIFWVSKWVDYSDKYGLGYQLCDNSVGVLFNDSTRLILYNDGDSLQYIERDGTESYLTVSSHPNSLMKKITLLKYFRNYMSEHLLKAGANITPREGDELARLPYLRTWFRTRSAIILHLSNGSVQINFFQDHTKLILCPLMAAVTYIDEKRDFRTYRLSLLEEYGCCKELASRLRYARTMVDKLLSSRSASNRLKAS

Molecular target: Serine/threonine-protein kinase PLK1 (Homo sapiens) (UniProt P53350)
Experiment: qHTS for Inhibitors of PLK1-PDB (polo-like kinase 1 - polo-box domain): Primary Screen; further: nearly all actives have a fitted effect of over 65% in size; on max response, negative = inhibition: series mostly up to about 57 µM
Conditions: Plk1 PBD binding of FITC phosphopeptide, fluorescence polarization
On the % scale 0 is the no-effect control and ±100 the full control effect; potency means the concentration at half of the fitted maximal effect.

SMILES | Potency | max response, negative = inhibition
O=S(=O)(c1ccc(NC(=S)NC2CCCC2)cc1)N1CCCC1 | active: 15 µM | –
CC1(C(=O)NS(=O)(=O)c2cccc(C#N)c2)CCN1C(=O)C/C=C/c1ccccc1 (centres undefined) | – | inactive: -14.4%
COc1ccc(N=C/C=C2\C=C(c3ccccc3)OC(C)(C)O2)cc1 | inconclusive: 23.8 µM [inhibitor, partial curve] | –
O=C1CCC(C(=O)OCC(=O)c2ccccc2)N1 (centres undefined) | active: 26.7 µM | –
COC(=O)c1sc(S(=O)(=O)Nc2ccc(Br)cc2)c(C(=O)OC)c1C | inconclusive: 29.9 µM [inhibitor, partial curve, poor fit] | –
CS(=O)(=O)c1ccccc1C(=O)Nc1cc2c(cc1C(=O)O)OCCCO2 | inconclusive: 29.9 µM [inhibitor, single point] | –
CCOc1cc(/C=C2/C(=O)N(c3ccccc3)N=C2C)ccc1OC(=O)c1cccs1 | active: 2.12 µM | –
COc1cc([N+](=O)[O-])ccc1NC(=S)N1CCOCC1 | inconclusive: 26.7 µM [inhibitor, single point] | –
Cc1cc(SC(C)C(=O)Nc2c(C)n(C)n(-c3ccccc3)c2=O)nc2ccccc12 (centres undefined) | inconclusive: 29.9 µM [inhibitor, single point] | –
COc1ccc(CNC(=O)c2ccc(-c3ccccc3)cc2)cc1OC | – | inactive: -9.86%
CCOC(=O)N1CCN(Cc2cc(=O)oc3ccc(Cl)cc23)CC1 | – | inactive: -1.38%
O=C(/C=C/c1ccc(Br)o1)OCc1nc2ccsc2c(=O)[nH]1 | inconclusive: 6.7 µM [inhibitor, partial curve] | –
CCOC(=O)C1=C(Cc2ccc(OC)cc2)C(=O)c2ccccc2C1=O | active: 11.9 µM | –
Oc1ccc(C[C@H]2CNC(=S)N2C[C@H]2CCCN2C[C@H](Cc2ccccc2)N2C[C@H](Cc3ccccc3)N(CC3CCCCC3)C2=S)cc1 | – | inactive: -5.64%
C=CCOn1c(=O)c(-c2ccc(OC)c(OC)c2)[n+]([O-])c2ccccc21 | inconclusive: 23.8 µM [inhibitor, single point] | –
CCOc1cc(CNCCc2ccccc2)ccc1OCC(=O)NC(C)(C)C | inconclusive: 37.7 µM [inhibitor, single point] | –
CCc1nc2ccc(C(=O)Nc3cc(-c4ccccc4)ccc3OC)cn2c1N(C)CCC(C)C | – | inactive: 3.41%
Cc1cc(C2=NNC(=NC3CC3)SC2)c(C)n1-c1ccccc1F | active: 26.7 µM | –
Cc1cc(C)cc(OCc2nnc(SCC(=O)NC3CC3)n2C)c1 | inconclusive: 23.8 µM [inhibitor, single point] | –
